Measurements from “University of Dundee, Small-Polar-MMV Screening Library” (2021), ChEMBL document CHEMBL3988442.

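Viability assay of Plasmodium falciparum sporozoites; the read-out is not stated. The concentration is filed as 10 mM, unlikely as a test dose, so the dose is not known. The record gives no direction; compounds that gave an IC50 in retests scored well above the rest, so higher reads as lower viability. Strong results were mostly tested again. Of about 34,000 compounds tested this way, about 280 (0.84%) reached 50% or more in at least one test.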

The filed quantity is “Percent Effect” (%).
The controls that fix the scale are not given in the record; negative values are as filed.
The compounds are a random part of those screened.

Compound	Percent Effect
O=C(NC1CCCc2c1[nH]c1ccc(F)cc21)c1n[nH]c2c1CCCC2 (centres undefined)	13.64%
Cc1ccc(-c2csc(N)c2C#N)cc1	-20.83%
CN1CCCc2cc(CNC(=O)c3cccnc3O)ccc21	11.18%
CNc1cc2c(nn1)CCN(C(=O)c1ccc3c(c1)CCC3)C2	4.932%
Cc1ocnc1C(=O)N1CCC(c2nccn2Cc2ccncc2)CC1	-5%
CCOc1ccc2cc(C(=O)N3CCn4c(CC)nnc4C3)[nH]c2c1	2.733%
Cc1noc2ncnc(N3CCC(O)(Cn4ccnc4)CC3)c12	0.1095%
Cc1cc(C)n(CC2CCCN2C(=O)c2ccnc(N(C)C)c2)n1 (centres undefined)	-3.095%
Cc1cccnc1CN1CCCCC1c1ccn2ccnc2n1 (centres undefined)	0%
CCc1nnc2n1CCN(C(=O)c1cc(Br)c[nH]1)C2	1.308%
CCc1nc(CNCC2CCCN2c2cccnn2)no1 (centres undefined)	13.37%
Cc1ccc(O)c(-c2cc(NCCO)nc3[nH]ccc23)c1	0.7018%
O=C(O)C(F)(F)F.[H][C@]12CC[C@@]3(N=C(CC)N(C)C3=O)[C@@]1([H])CN(Cc1ccc(Cl)cc1)C2	-5.486%
N#Cc1cccc(C(=O)NC2CCc3c(ccc(=O)n3CC3CC3)C2)c1 (centres undefined)	13.61%
Cc1ccccc1CSc1nc(N)cc(N2CCOCC(CO)C2)n1 (centres undefined)	17.4%
COc1ccc(C2=CCN(C(=O)C3CCCN(C(N)=O)C3)CC2)cc1 (centres undefined)	1.874%
O=C(NCC1CCS(=O)(=O)C1)N1CCN(c2cnccn2)CC1 (centres undefined)	5.986%
O=C(NCC1CC1)C1CN(C(=O)Nc2ccccc2)CC12CCOCC2 (centres undefined)	-12.25%
CCc1ncc(CN(C)C2CCN(C(C)C)CC2)cn1.O=C(O)CC(O)(CC(=O)O)C(=O)O	7.243%
CCCc1n[nH]c(C2CN(C(=O)c3ccco3)CCO2)n1 (centres undefined)	-1.874%
O=C(CSC1=NS(=O)(=O)c2cc(Cl)ccc2N1)c1ccccc1	21.93%
Cc1csc(Nc2nccnc2C2CCCN2C(=O)C(C)C)n1 (centres undefined)	-2.12%
Oc1ccc(N2CCN(Cc3cc4c(cc3Br)OCCO4)CC2)cc1	8.735%
O=C(C1CCC1)N1CCC2(COCc3cnc(N4CCOCC4)nc32)C1 (centres undefined)	5.952%
CC(C)N1CCCC(c2cc(C(F)(F)F)nc3nccn23)C1 (centres undefined)	2.917%
CNC(=O)C1(c2cnccn2)CCCN1C(=O)c1ccn(C)n1 (centres undefined)	-11.02%
COc1ccc2c(c1)OC1(CCN(Cc3ccc(C)cc3)CC1)CC2=O	-18.17%
COc1ccc(C2=CCN(C(=O)CN(C)Cc3ccoc3)CC2)cc1	11.1%
COCCNC(=O)c1ccc2ccc(N3CCN(CC4CC4)CC3)n2c1	-3.24%
Cc1noc(C)c1C(=O)N[C@@H]1CCC[C@@H](Oc2ccccc2)[C@@H]1O	4.363%
CC(=O)Nc1nc2c(s1)C1(CCCC1)Nc1ccccc1S2	5.504%
COc1ccc2c(c1)CCN(CCC(=O)NC1CCCCC1)CC2	-2.941%
Cc1nc2ccccc2nc1CN1CCCC(Cn2cncn2)C1 (centres undefined)	-2.453%
Cc1ccc(NCc2cncc3c2CCN(C(=O)C2CC=CC2)C3)nn1.Cl	-3.788%
COc1c(C2CCCN2Cc2cccc(C(N)=O)c2)c(C)nn1C (centres undefined)	1.545%
Cl.O=C(C1CC1)N1CC2(CCNCC2)C1	2.053%
O=C1CC(c2ccc(C(=O)O)cc2)c2cnn(Cc3ccco3)c2N1 (centres undefined)	-0.8174%
CCc1noc(C)c1C(=O)N1CCCC(n2nc(C)nc2C)C1 (centres undefined)	3.461%
CCOCC1CN(C(=O)Cc2ccccn2)Cc2cn(CC)nc21 (centres undefined)	0.4866%
N#CC1CCCN(c2nc(-c3ccccc3)nc3c2CCNCC3)C1 (centres undefined)	-1.777%
Cc1ccccc1CNC(=O)c1ccccc1-n1cc(CN)cn1	4.612%
Cn1nccc1CNC(=O)CCn1nc(C(F)(F)F)cc1C1CC1	4.88%
CC(C)c1nccc(CN2CCCC(O)(CN(C)C)CC2)n1 (centres undefined)	2.923%
CCC(CC)NC(=O)c1ccc2c(c1)C(c1nc[nH]n1)CN2S(C)(=O)=O (centres undefined)	0.8881%
CN1CCN(Cc2cnc3n2CCN(C(=O)c2cnccn2)C3)CC1	0.1684%
[H][C@@]12CN(Cc3cc4ccccc4o3)C[C@]1(C(=O)O)CN(CC1CC1)C2=O	-5.799%
Cc1nnc2n1CCN(C(=O)c1ccnc(N(C)C)c1)C2	15.04%
c1ccc(Cc2noc(CN3CCCC3Cn3cccn3)n2)cc1 (centres undefined)	-30.71%
O=C(O)C(F)(F)F.[H][C@@]12COC[C@]1(CN(C)C)CN(C(=O)CCc1ccccc1)C2	-1.946%

The last 4 entries again:

| Compound | Percent Effect |
|---|---|
| `[H][C@@]12CN(Cc3cc4ccccc4o3)C[C@]1(C(=O)O)CN(CC1CC1)C2=O` | -5.799% |
| `Cc1nnc2n1CCN(C(=O)c1ccnc(N(C)C)c1)C2` | 15.04% |
| `c1ccc(Cc2noc(CN3CCCC3Cn3cccn3)n2)cc1` (centres undefined) | -30.71% |
| `O=C(O)C(F)(F)F.[H][C@@]12COC[C@]1(CN(C)C)CN(C(=O)CCc1ccccc1)C2` | -1.946% |